The list shows only some results of the screen, not a fair sample: it gathers tests that were run many times, whatever their T/C, doses with no T/C, and many T/C values between a quarter and a half above the control. Further doses and runs are listed elsewhere. T/C: endpoint of the treated group in % of that of the vehicle group. Some doses have a count of surviving animals in place of a T/C: the source holds a T/C of zero for them, seemingly a mark for toxic or unscored doses. Some survivor counts are full or nearly so, which does not show that the dose was tolerated: the source hardly ever lists a survival T/C far under the control, and the zero likely stands for such cases as well. Survivors were counted at the toxicity check, usually on the fifth day, unless a day is given; later deaths do not show. Schedules are NCI's codes, taken here to give the interval after Q, in days (D) or hours (H), and the number of doses after X. Where survival is the endpoint, this PubChem deposit counts one and a half times the control or more as active, and values a quarter to a half above the control carry no call in these data; other NCI protocols may use other cut-offs. Some doses were run more than once; the values are given in rising order. Some T/C values carry the count of animals alive at the toxicity check (mostly the fifth day); where none is given, no animal had died by that day.
Test system: BDF1 mice, P388 leukemia ip, median survival T/C
Assay: NCI In Vivo Anticancer Drug Screen. Data for tumor model P388 Leukemia (intraperitoneal) in B6D2F1 (BDF1) mice
Conditions: T/C endpoint: median survival time, higher T/C = longer survival
Method in brief: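 In tumour-bearing mice, survival after compound treatment is set against the vehicle group and given as a quotient.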

[1] = dose: 6.25 mg/kg/injection, schedule: Q01DX009 (ip), vehicle: saline with Tween-80
[2] = dose: 12.5 mg/kg/injection, schedule: Q04DX003 (ip), vehicle: saline with Tween-80
[3] = dose: 100.0 mg/kg/injection, schedule: Q04DX003 (ip), vehicle: saline with Tween-80
[4] = dose: 200.0 mg/kg/injection, schedule: Q04DX003 (ip), vehicle: saline with Tween-80
[5] = dose: 400.0 mg/kg/injection, schedule: Q04DX003 (ip), vehicle: saline with Tween-80
[6] = dose: 100.0 mg/kg/injection, schedule: Q01DX009 (ip), vehicle: saline with Tween-80
[7] = dose: 200.0 mg/kg/injection, schedule: Q01DX009 (ip), vehicle: saline with Tween-80
[8] = dose: 50.0 mg/kg/injection, schedule: Q01DX009 (ip), vehicle: saline with Tween-80
[9] = dose: 50.0 mg/kg/injection, schedule: Q04DX003 (ip), vehicle: saline with Tween-80
[10] = dose: 200.0 mg/kg/injection, schedule: Q04DX003 (ip), vehicle: Klucel (hydroxypropylcellulose) (HPC)
[11] = dose: 200.0 mg/kg/injection, schedule: Q01DX009 (ip), vehicle: saline
[12] = dose: 400.0 mg/kg/injection, schedule: Q01DX009 (ip), vehicle: saline

Structure (SMILES): C[CH2][Pb]([CH2]C)([CH2]C)[O]C(=O)c1ccc(N)cc1
- T/C (dose: 6.25 mg/kg/injection, schedule: Q01DX009 (ip), vehicle: Klucel (hydroxypropylcellulose) (HPC)): 129 and 141 % of control
- T/C (dose: 12.0 mg/kg/injection, schedule: Q01DX009 (ip), vehicle: Klucel (hydroxypropylcellulose) (HPC)): 135 % of control
- survivor count (dose: 12.5 mg/kg/injection, schedule: Q01DX009 (ip), vehicle: Klucel (hydroxypropylcellulose) (HPC)): 5 of 6
- survivor count (dose: 24.0 mg/kg/injection, schedule: Q01DX009 (ip), vehicle: Klucel (hydroxypropylcellulose) (HPC)): 5 of 6
- survivor count (dose: 25.0 mg/kg/injection, schedule: Q01DX009 (ip), vehicle: Klucel (hydroxypropylcellulose) (HPC)): 2 of 6

Structure (SMILES): CCC[CH2][Sn]1([CH2]CCC)[O]OC(C)(CC)[O]1 (stereo unspecified)
- T/C (dose: 1.56 mg/kg/injection, schedule: Q01DX009 (ip), vehicle: saline with Tween-80): 138 % of control [5 of 6 alive]
- T/C (dose: 3.13 mg/kg/injection, schedule: Q01DX009 (ip), vehicle: saline with Tween-80): 147 % of control
- survivor count [1]: 1 of 6

Structure (SMILES): CCCCCCCCCCCCCCCC[N+](C)(C)C(C)c1ccc(OC)cc1 (stereo unspecified)
- survivor count [2]: 6 of 6
- survivor count (dose: 25.0 mg/kg/injection, schedule: Q04DX003 (ip), vehicle: saline with Tween-80): 4 of 6
- survivor count [3]: 0 of 6
- survivor count [4]: 0 of 6
- survivor count [5]: 0 of 6

Structure (SMILES): Nc1nc(=S)c2[nH]c(=S)[nH]c2[nH]1
- T/C (dose: 176.0 mg/kg/injection, schedule: Q04DX003 (ip), vehicle: saline with Tween-80): 125 % of control
- T/C (dose: 264.0 mg/kg/injection, schedule: Q04DX003 (ip), vehicle: saline with Tween-80): 145 % of control

Structure (SMILES): CCC[CH2][Sn]1([CH2]CCC)[O]OC2(CCCCC2)[O]1
- T/C (dose: 2.5 mg/kg/injection, schedule: Q01DX009 (ip), vehicle: Klucel (hydroxypropylcellulose) (HPC)): 144 % of control
- survivor count (dose: 6.25 mg/kg/injection, schedule: Q04DX003 (ip), vehicle: saline sonified): 6 of 6
- survivor count (dose: 10.0 mg/kg/injection, schedule: Q01DX009 (ip), vehicle: Klucel (hydroxypropylcellulose) (HPC)): 0 of 6

Structure (SMILES): COC(=O)c1ccc(Cl)c(Cl)c1
- survivor count [6]: 5 of 6
- survivor count [7]: 5 of 6
- T/C [4]: 136 % of control
- survivor count (dose: 400.0 mg/kg/injection, schedule: Q01DX009 (ip), vehicle: saline with Tween-80): 0 of 6
- survivor count [5]: 6 of 6

Structure (SMILES): Cn1nnc(N/N=C/c2ccccc2)n1
- T/C (dose: 12.5 mg/kg/injection, schedule: Q01DX009 (ip), vehicle: saline with Tween-80): 140 % of control [5 of 6 alive]
- survivor count (dose: 40.0 mg/kg/injection, schedule: Q01DX009 (ip), vehicle: saline with Tween-80): 3 of 6
- survivor count [8]: 0 of 6
- survivor count [9]: 1 of 6
- survivor count [3]: 6 of 6

Structure (SMILES): Cc1n[nH]c2ccc([N+](=O)[O-])cc2c1=O
- survivor count [8]: 6 of 6
- survivor count [6]: 6 of 6

Structure (SMILES): Clc1nc(Cl)nc(-c2cccn2-c2ccccc2)n1
- survivor count (dose: 335.0 mg/kg/injection, schedule: Q01DX009 (ip), vehicle: Klucel (hydroxypropylcellulose) (HPC)): 0 of 6

Structure (SMILES): COc1ccc(C(O)CNC(=O)c2ccccc2)cc1 (stereo unspecified)
- T/C [10]: 125 % of control [5 of 6 alive]
- survivor count (dose: 400.0 mg/kg/injection, schedule: Q04DX003 (ip), vehicle: Klucel (hydroxypropylcellulose) (HPC)): 6 of 6

Structure (SMILES): CNC(=O)NNc1ccccc1
- T/C (dose: 100.0 mg/kg/injection, schedule: Q04DX003 (ip), vehicle: Klucel (hydroxypropylcellulose) (HPC)): 125 % of control

Structure (SMILES): COC1CC(C)(O)C(OC2CCC(OC(=O)C(C)C(O)c3ccc4c(c3)C(=O)C=C(C)C4=O)C(C)O2)C(C)O1 (stereo unspecified)
- T/C (dose: 5.0 mg/kg/injection, schedule: Q01DX009 (ip), vehicle: saline): 127 % of control

Structure (SMILES): C=C(C)[C@H]1Cc2c(ccc3c2O[C@@H]2COc4cc(OC)c(OC)cc4[C@@H]2C3=O)O1
- T/C (dose: 8.0 mg/kg/injection, schedule: Q01DX010 (ip), vehicle: saline): 127 % of control
- T/C (dose: 16.0 mg/kg/injection, schedule: Q01DX010 (ip), vehicle: saline): 136 % of control
- survivor count (dose: 32.0 mg/kg/injection, schedule: Q01DX010 (ip), vehicle: saline): 6 of 6
- survivor count (dose: 100.0 mg/kg/injection, schedule: Q01DX001 (ip), vehicle: saline with Tween-80): 3 of 6
- survivor count (dose: 200.0 mg/kg/injection, schedule: Q01DX001 (ip), vehicle: saline with Tween-80): 0 of 6
- survivor count (dose: 400.0 mg/kg/injection, schedule: Q01DX001 (ip), vehicle: saline with Tween-80): 0 of 6

Structure (SMILES): CCCn1c2nc(=O)n(C)c(=O)c-2[n+]([O-])c2ccccc21
- survivor count (dose: 25.0 mg/kg/injection, schedule: Q01DX001 (ip), vehicle: saline with Tween-80): 0 of 6

Structure (SMILES): CCCCCCCCCCCCCCCC[N+](C)(C)c1ccccc1
- T/C (dose: 6.25 mg/kg/injection, schedule: Q04DX003 (ip), vehicle: saline with Tween-80): 128 % of control
- T/C [2]: 135 % of control
- survivor count [2]: 5 of 6
- survivor count [9]: 5 of 6
- survivor count [3]: 0 of 6
- survivor count [4]: 0 of 6
- survivor count [5]: 0 of 6

Structure (SMILES): Oc1ccc(N=Cc2ccccc2O)cc1
- T/C [11]: 125 % of control
- T/C (dose: 264.0 mg/kg/injection, schedule: Q01DX009 (ip), vehicle: saline): 131 % of control
- T/C [12]: 131 and 133 % of control

Structure (SMILES): CSC(=S)N/N=C(\C)C1CCCC[N-]1.[Cl][Zn][Cl] (stereo unspecified)
- survivor count [8]: 6 of 6
- survivor count [6]: 5 of 6
- survivor count [7]: 0 of 6

Structure (SMILES): O=[N+]([O-])[O-].OCCNCCNCC[OH2+].OCCNCCNCC[OH2+].[Ni+2]
- survivor count (dose: 50.0 mg/kg/injection, schedule: Q01DX009 (ip), vehicle: saline): 6 of 6
- survivor count (dose: 100.0 mg/kg/injection, schedule: Q01DX009 (ip), vehicle: saline): 4 of 6
- survivor count [11]: 0 of 6

Structure (SMILES): [Cl][Pt+2][Cl].[NH-]C1CCCC1.[NH-]C1CCCC1
- T/C (dose: 160.0 mg/kg/injection, schedule: Q01DX009 (ip), vehicle: Klucel (hydroxypropylcellulose) (HPC)): 127 % of control

Structure (SMILES): CSCCC(NC(C)=O)C(=O)O (stereo unspecified)
- survivor count [12]: 6 of 6

Structure (SMILES): CCC[CH2][Hg][O]C(C)=O
- T/C (dose: 3.3 mg/kg/injection, schedule: Q01DX009 (ip), vehicle: other): 145 % of control
- T/C (dose: 5.0 mg/kg/injection, schedule: Q01DX009 (ip), vehicle: other): 145 % of control
- T/C [1]: 125 % of control
- survivor count (dose: 7.5 mg/kg/injection, schedule: Q01DX009 (ip), vehicle: other): 4 of 6
- T/C (dose: 9.37 mg/kg/injection, schedule: Q01DX009 (ip), vehicle: saline): 142 % of control
- T/C (dose: 12.5 mg/kg/injection, schedule: Q04DX003 (ip), vehicle: saline sonified): 125 % of control

Structure (SMILES): OC(CC1CCCCN1)c1ccccc1 (stereo unspecified)
- survivor count [6]: 1 of 6
- survivor count [7]: 0 of 6

Structure (SMILES): CSc1ssc(=Nc2ccc(C)cc2)c1-c1ccccc1
- survivor count (dose: 100.0 mg/kg/injection, schedule: Q01DX009 (ip), vehicle: Klucel (hydroxypropylcellulose) (HPC)): 6 of 6

Structure (SMILES): CSc1ccc(NC(=O)CCl)cc1
- survivor count [6]: 2 of 6

Structure (SMILES): CC(=O)[O][Hg][c]1c(N)c(C)cc(C)c1F
- survivor count (dose: 12.5 mg/kg/injection, schedule: Q04DX003 (ip), vehicle: saline): 3 of 6
- survivor count (dose: 25.0 mg/kg/injection, schedule: Q01DX009 (ip), vehicle: saline): 1 of 6
- survivor count (dose: 25.0 mg/kg/injection, schedule: Q04DX003 (ip), vehicle: saline): 3 of 6
- survivor count (dose: 50.0 mg/kg/injection, schedule: Q04DX003 (ip), vehicle: saline): 2 of 6
- survivor count (dose: 100.0 mg/kg/injection, schedule: Q04DX003 (ip), vehicle: saline): 0 of 6

Structure (SMILES): O=S(=O)(Nc1ccc(C(F)(F)F)cc1)c1ccc(C(F)(F)F)cc1
- survivor count [10]: 4 of 6

— PubChem BioAssay AID328 (DTP/NCI, 2004)
